Test results from article PMC3195953.
Results are given in words; binding and its absence hold for the method and conditions named. In cells and extracts the contact can be indirect. Some binding calls cover weakened binding; strength is not graded here.

Protein sequences, listed by entry. Tags and fused reporters are not part of them.
UniProt P08238: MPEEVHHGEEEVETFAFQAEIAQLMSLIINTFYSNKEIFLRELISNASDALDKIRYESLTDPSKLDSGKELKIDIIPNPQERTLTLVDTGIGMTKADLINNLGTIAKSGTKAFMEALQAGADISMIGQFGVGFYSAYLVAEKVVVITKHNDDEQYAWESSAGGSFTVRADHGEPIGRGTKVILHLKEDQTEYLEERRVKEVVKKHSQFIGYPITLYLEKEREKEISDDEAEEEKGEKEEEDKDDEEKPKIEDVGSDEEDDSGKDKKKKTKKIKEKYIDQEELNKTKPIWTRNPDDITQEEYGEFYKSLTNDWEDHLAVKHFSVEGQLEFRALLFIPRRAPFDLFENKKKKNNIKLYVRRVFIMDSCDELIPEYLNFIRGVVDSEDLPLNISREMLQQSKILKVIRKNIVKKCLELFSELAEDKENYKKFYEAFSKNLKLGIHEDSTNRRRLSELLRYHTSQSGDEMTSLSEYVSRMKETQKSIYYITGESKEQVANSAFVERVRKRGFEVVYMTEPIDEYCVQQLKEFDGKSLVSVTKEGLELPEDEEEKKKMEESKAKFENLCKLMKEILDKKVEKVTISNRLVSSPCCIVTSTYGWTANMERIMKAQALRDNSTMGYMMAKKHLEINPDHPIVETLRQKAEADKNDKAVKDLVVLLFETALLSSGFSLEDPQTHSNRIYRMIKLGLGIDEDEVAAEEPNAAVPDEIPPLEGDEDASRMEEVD
UniProt O15131: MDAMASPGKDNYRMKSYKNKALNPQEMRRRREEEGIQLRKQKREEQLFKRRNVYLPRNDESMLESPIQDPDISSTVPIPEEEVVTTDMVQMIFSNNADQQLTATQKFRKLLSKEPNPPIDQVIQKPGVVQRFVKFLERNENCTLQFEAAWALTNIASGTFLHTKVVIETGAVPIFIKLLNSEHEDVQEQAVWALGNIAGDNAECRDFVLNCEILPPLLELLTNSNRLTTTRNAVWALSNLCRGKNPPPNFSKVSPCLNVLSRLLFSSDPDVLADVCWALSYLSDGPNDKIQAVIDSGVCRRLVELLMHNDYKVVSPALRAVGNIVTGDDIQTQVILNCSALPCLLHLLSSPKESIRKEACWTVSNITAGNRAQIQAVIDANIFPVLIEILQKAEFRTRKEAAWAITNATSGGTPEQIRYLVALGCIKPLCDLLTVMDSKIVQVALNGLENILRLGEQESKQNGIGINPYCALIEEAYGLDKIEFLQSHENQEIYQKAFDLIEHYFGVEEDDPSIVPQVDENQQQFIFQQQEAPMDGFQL

Key:
Flag-tagged Aha1 = Flag-tagged Aha1 (UniProt O95433); assay: co-IP; triple-Flag-tagged bait transiently expressed in HEK 293T cells; lysis in 20 mM Tris-HCl pH 7.4, 150 mM KCl, 0.2 mM MgCl2, 1 mM dithiothreitol, 2% Triton X-100; anti-FLAG (M2) magnetic beads overnight at 4°C; washed with Tris-buffered saline; immunoblot
Flag-tagged exportin-1 = Flag-tagged exportin-1 (UniProt O14980); assay: as above

For Hsp90α (from UniProt P07900 1-732), the binding (Flag-tagged Aha1) was “binds” and the binding (Flag-tagged exportin-1) was “binds”.

Hsp90β (from UniProt P08238 1-724) was tested, and the binding (Flag-tagged Aha1) was “binds” and the binding (Flag-tagged exportin-1) was “binds”.

For importin-α6 (from UniProt O15131 1-539), the binding (Flag-tagged Aha1) was “binds” and the binding (Flag-tagged exportin-1) was “binds”.
